Assay results as given in PMC8520055 (Asian Journal of Pharmaceutical Sciences, 2021).

How the values were obtained:
[1] = Pharmacokinetics of ATV; assay type: in vivo, rats; conditions: ATV 10 mg/kg p.o.; for CL/F / Cmax / MRT last / MRT inf: rat, plasma, po, 10 mg/kg; for MRT last: MRT0-t; for MRT inf: MRT0-∞
[2] = Pharmacokinetics of ATV; assay type: in vivo, rats; conditions: ATV 10 mg/kg p.o.; for AUC(0-inf) / CL/F / Cmax / MRT last / MRT inf: rat, plasma, po, 10 mg/kg; for AUC(0-inf): AUC0-∞; for MRT last: MRT0-t; for MRT inf: MRT0-∞
[3] = Hepatic disposition of ATV and GCDCA-S in rats with ANIT-induced liver injury; assay type: in vivo; conditions: 10 mg/kg ANIT-treated rats; ATV 10 mg/kg p.o., 30 min; P > 0.05

Question: What does the source list for CC(C)c1c(C(=O)Nc2ccccc2)c(-c2ccccc2)c(-c2ccc(F)cc2)n1CC[C@@H](O)C[C@@H](O)CC(=O)O [atorvastatin]?
Answer: V/F ([1]; Control (vehicle i.v.)): 46.22 ± 8.62 L/kg; V/F ([1]; with RIF 30 mg/kg i.v.): 11.64 ± 4.81 ^⁎⁎ l/kg; CL/F ([1]; Control (vehicle i.v.)): 360 ± 70 mL/min/kg; CL/F ([1]; with RIF 30 mg/kg i.v.): 70 ± 10 mL/min/kg; Cmax ([1]; Control (vehicle i.v.)): 315 ± 54.4 ng/mL; Cmax ([1]; with RIF 30 mg/kg i.v.): 1530 ± 372 ng/mL; MRT last ([1]; Control (vehicle i.v.)): 1.46 h; MRT last ([1]; with RIF 30 mg/kg i.v.): 1.53 h; MRT inf ([1]; Control (vehicle i.v.)): 1.81 h; MRT inf ([1]; with RIF 30 mg/kg i.v.): 2.14 h; V/F ([2]; Control (vehicle i.v.)): 19.03 ± 4.76 L/kg; V/F ([2]; with KTZ 20 mg/kg i.v.): 14.11 ± 6.56 L/kg; AUC(0-inf) ([2]; Control (vehicle i.v.)): 668 ng·h/mL; AUC(0-inf) ([2]; with KTZ 20 mg/kg i.v.): 1700 ng·h/mL; CL/F ([2]; Control (vehicle i.v.)): 280 ± 90 mL/min/kg; CL/F ([2]; with KTZ 20 mg/kg i.v.): 110 ± 30 mL/min/kg; Cmax ([2]; Control (vehicle i.v.)): 463 ± 120 ng/mL; Cmax ([2]; with KTZ 20 mg/kg i.v.): 706 ± 159 ng/mL; MRT last ([2]; Control (vehicle i.v.)): 1.09 h; MRT last ([2]; with KTZ 20 mg/kg i.v.): 1.82 h; MRT inf ([2]; Control (vehicle i.v.)): 1.13 h; MRT inf ([2]; with KTZ 20 mg/kg i.v.): 2.3 h; Plasma levels vs control [3]: no significant change
